Measured values from the supplement of paper PMC11732987, “Enantioselective OTUD7B fragment discovery through chemoproteomics screening and high-throughput optimisation” (Communications Chemistry, 2025).
The other results are listed elsewhere or left out. The data scatter; read single values as rough.

The chains behind the UniProt entries cited, without tags or fusion partners. Where a name states a change or a piece, a line headed by the entry shows the natural chain unless it says otherwise. Residues count along the entry.
UniProt P35520, 337-359: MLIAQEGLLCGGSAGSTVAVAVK
UniProt Q8IU85, 175-200: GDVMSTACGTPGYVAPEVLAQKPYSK
UniProt Q8TDN6: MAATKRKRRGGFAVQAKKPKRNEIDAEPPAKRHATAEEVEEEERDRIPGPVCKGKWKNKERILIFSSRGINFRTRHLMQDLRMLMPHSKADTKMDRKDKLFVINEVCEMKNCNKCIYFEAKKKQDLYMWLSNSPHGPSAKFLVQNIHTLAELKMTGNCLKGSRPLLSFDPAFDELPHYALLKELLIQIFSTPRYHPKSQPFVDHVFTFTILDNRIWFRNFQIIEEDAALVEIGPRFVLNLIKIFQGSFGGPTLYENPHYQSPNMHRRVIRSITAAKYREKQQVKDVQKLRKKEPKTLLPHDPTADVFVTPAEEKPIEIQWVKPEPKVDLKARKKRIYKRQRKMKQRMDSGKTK
UniProt P47756: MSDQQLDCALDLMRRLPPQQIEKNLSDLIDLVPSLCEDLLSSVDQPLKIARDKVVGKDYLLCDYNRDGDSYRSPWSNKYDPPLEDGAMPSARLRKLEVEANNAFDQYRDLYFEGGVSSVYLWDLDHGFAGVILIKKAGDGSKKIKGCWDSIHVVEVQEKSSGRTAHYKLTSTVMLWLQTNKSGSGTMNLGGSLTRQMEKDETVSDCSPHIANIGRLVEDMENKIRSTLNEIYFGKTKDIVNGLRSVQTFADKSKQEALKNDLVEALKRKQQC
UniProt Q9BX63: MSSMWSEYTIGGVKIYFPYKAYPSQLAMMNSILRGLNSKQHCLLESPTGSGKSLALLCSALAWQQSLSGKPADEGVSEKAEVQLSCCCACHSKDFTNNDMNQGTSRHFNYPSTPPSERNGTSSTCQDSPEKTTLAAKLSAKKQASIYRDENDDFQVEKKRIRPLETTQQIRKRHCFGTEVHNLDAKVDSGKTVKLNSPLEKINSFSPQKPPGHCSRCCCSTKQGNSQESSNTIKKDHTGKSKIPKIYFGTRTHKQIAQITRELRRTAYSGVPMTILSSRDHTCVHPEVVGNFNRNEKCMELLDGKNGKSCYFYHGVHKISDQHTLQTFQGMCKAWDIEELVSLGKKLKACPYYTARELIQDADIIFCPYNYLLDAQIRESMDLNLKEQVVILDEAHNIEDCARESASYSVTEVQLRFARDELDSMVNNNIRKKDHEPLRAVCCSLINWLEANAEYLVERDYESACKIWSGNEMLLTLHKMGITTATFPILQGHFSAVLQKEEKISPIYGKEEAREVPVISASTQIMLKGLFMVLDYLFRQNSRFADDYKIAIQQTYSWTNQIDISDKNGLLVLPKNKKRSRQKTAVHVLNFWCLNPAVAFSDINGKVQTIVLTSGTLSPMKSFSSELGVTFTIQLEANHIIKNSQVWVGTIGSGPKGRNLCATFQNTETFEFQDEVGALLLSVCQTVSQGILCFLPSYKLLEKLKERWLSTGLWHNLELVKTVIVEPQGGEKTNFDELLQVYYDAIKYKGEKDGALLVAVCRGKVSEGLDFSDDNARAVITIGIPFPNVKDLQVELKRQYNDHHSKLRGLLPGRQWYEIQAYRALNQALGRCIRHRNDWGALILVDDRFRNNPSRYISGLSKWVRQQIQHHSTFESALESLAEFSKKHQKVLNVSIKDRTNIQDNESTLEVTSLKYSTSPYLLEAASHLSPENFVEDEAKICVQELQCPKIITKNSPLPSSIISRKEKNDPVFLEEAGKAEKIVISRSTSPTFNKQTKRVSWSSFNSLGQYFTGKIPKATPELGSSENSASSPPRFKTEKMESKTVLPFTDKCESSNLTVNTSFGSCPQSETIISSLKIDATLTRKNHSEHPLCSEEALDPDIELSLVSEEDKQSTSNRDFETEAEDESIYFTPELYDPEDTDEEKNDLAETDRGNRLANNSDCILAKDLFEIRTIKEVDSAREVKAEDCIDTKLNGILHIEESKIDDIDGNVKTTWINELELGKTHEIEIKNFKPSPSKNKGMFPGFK
UniProt Q96RR4: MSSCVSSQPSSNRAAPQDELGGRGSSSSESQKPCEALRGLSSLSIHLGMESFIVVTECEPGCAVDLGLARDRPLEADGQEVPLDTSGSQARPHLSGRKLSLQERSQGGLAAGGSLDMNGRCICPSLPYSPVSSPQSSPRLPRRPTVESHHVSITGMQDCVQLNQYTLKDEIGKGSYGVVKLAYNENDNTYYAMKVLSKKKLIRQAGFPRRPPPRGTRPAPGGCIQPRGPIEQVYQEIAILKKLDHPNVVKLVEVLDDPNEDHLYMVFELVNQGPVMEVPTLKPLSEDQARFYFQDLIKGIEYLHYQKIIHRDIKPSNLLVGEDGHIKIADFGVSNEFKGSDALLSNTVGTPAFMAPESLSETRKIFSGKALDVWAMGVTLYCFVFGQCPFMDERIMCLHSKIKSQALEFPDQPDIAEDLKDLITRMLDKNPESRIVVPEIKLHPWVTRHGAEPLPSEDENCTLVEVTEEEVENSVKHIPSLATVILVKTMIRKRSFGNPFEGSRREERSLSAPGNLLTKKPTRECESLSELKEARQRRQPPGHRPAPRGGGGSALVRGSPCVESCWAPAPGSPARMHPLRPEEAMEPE
UniProt O15234, 32-52: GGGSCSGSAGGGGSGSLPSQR
UniProt Q8NFC6: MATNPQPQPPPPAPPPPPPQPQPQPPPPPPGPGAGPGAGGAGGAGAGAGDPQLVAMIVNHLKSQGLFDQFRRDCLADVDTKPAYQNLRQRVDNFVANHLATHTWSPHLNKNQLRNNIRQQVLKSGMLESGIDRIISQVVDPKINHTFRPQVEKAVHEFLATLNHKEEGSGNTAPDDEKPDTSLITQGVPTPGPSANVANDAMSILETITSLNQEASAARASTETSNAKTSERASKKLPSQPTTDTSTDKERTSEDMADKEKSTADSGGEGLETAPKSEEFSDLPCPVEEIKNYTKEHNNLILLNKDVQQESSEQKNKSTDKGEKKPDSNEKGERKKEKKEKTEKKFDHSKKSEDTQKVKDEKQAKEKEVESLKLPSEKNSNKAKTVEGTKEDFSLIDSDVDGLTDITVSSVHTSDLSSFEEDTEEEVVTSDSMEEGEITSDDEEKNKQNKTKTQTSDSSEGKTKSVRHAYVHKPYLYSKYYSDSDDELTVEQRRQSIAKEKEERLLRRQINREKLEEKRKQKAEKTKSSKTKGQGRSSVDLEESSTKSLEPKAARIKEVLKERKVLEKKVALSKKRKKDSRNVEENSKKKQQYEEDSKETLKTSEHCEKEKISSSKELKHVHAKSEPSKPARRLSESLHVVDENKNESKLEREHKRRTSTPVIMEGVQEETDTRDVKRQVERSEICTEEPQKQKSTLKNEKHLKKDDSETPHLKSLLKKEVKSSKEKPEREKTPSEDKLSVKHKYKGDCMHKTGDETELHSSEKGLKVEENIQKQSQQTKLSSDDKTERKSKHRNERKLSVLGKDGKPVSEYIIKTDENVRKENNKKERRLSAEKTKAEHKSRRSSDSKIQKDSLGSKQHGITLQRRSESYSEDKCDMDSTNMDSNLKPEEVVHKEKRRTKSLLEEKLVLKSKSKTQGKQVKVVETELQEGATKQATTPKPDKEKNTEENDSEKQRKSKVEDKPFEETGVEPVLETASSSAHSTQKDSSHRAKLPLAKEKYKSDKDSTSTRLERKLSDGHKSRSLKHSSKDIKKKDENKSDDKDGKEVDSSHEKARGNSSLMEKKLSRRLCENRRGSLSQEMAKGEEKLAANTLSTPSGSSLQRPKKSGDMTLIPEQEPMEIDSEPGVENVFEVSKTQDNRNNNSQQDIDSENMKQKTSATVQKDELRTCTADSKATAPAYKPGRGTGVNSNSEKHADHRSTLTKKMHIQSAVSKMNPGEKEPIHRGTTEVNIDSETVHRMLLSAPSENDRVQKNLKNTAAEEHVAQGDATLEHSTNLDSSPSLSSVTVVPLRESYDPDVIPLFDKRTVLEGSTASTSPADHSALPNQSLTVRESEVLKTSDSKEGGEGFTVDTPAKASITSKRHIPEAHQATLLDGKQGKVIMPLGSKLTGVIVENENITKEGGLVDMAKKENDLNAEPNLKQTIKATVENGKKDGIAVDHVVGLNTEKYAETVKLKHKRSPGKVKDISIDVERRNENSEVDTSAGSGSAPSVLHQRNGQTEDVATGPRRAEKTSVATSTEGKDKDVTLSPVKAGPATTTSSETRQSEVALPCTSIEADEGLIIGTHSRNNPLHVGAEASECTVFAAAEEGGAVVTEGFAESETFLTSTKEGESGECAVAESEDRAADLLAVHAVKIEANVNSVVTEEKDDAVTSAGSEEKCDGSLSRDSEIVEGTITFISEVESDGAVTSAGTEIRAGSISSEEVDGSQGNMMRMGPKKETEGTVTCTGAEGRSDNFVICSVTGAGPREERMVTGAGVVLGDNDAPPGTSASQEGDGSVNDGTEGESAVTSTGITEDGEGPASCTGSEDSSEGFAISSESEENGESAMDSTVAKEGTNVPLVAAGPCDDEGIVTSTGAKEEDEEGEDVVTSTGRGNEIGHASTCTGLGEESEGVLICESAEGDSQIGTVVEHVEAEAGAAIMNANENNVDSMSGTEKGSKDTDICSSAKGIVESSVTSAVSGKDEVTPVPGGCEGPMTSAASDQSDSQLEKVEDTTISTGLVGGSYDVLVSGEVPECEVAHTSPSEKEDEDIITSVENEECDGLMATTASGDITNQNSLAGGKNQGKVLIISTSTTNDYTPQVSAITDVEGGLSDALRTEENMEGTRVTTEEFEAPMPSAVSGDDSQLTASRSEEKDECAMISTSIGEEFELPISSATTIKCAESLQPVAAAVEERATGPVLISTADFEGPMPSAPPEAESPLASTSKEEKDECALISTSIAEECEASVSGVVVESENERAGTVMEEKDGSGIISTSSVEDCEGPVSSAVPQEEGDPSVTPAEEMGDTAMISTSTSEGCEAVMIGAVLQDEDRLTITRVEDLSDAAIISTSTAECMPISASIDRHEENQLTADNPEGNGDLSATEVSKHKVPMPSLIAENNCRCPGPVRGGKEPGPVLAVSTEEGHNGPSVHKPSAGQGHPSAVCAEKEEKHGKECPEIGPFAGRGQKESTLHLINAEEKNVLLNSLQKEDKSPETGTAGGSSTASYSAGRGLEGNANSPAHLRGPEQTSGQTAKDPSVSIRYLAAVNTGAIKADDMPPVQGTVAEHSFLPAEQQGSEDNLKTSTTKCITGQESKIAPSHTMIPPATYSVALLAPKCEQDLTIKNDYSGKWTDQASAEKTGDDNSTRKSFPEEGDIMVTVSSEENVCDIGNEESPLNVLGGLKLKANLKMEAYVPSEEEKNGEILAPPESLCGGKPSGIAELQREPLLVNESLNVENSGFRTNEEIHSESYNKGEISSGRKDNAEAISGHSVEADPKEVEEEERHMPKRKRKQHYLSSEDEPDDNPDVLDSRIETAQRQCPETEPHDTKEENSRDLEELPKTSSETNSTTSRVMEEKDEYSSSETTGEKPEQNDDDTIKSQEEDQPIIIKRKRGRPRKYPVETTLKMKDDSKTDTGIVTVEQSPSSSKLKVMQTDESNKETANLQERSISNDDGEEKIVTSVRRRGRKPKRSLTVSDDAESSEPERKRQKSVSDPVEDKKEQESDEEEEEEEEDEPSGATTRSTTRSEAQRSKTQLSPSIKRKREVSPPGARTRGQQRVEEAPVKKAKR
UniProt Q9NZ63: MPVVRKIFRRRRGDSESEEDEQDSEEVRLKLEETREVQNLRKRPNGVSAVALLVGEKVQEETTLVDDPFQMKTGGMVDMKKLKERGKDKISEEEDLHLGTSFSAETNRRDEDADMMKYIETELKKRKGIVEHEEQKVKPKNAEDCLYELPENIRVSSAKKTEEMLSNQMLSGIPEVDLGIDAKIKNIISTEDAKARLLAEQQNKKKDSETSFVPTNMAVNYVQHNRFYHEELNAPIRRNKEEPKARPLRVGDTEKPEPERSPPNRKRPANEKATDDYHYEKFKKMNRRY
UniProt Q9Y3E2: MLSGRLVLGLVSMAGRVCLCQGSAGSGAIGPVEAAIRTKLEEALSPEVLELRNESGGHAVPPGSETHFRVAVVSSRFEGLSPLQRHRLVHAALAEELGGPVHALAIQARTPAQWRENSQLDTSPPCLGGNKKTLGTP
UniProt P42575: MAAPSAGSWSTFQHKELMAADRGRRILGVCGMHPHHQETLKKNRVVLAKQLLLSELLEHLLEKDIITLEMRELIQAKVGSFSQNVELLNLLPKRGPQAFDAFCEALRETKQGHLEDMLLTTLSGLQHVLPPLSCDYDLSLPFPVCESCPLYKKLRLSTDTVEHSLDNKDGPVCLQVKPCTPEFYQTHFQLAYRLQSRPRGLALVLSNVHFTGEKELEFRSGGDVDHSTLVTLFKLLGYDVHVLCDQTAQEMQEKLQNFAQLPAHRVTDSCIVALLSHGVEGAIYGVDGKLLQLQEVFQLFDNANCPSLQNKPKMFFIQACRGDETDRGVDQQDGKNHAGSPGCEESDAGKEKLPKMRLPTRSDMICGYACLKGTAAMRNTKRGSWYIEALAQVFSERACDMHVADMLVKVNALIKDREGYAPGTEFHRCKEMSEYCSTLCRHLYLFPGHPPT

compound: ClCC(=O)N[C@H]1CCCc2ccccc12; assay: log2 mean competition ratio of IA-DTB cysteine labelling (DMSO/compound) (log2 ratio); higher = stronger cysteine engagement by compound; conditions: 50 µM; treatment time: 4 h; cell line lysate: HEK293T
Description: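 IA-DTB competitive cysteine chemoproteomics in HEK293T RIPA lysate. Lysates were treated with compound 29 or 30 at 50 or 200 µM for 4 h, then IA-DTB (500 µM, 1 h), trypsin-digested, NeutrAvidin-enriched and analysed by diaPASEF. Competition ratio = intensity DMSO / intensity compound (n=4 treated, n=64 DMSO); binding: mean log2 CR ≥ 1 and p ≤ 0.05 plus QC filters. Target is the cysteine site.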

Row | Target | log2 mean competition ratio
1 | CBS C346 (UniProt P35520) | -0.18
2 | CAMK1D C182 (UniProt Q8IU85) | 0.622
3 | BORA C130 (UniProt Q6PGQ7) | -0.286
4 | C17orf75 C357 (UniProt Q9HAS0) | -0.107
5 | BRME1 C79 | -0.0807
6 | BRIX1 C52 (UniProt Q8TDN6) | 0.132
7 | CAPZB C147 (UniProt P47756) | -0.0628
8 | CAD C897 | 0.259
9 | BRIP1 C42 (UniProt Q9BX63) | 0.0852
10 | CAMKK2 C4 (UniProt Q96RR4) | 0.149
11 | BRD1 C895 | -0.289
12 | CASC3 C36 (UniProt O15234) | 0.032
13 | CBR3 C150 (UniProt O75828) | 0.261
14 | BOD1L1 C1170 (UniProt Q8NFC6) | 0.0283
15 | BPTF C20 | -0.221
16 | CAMSAP1 C272 (UniProt Q5T5Y3) | -0.0769
17 | C9orf78 C145 (UniProt Q9NZ63) | 0.181
18 | BOLA1 C126 (UniProt Q9Y3E2) | 0.138
19 | CASP2 C343 (UniProt P42575) | -0.411
20 | C1orf112 C559 (UniProt Q9NSG2) | 0.226

same assay, conditions: 200 µM; treatment time: 4 h; cell line lysate: HEK293T

Row | Target | log2 mean competition ratio
21 | CBS C346 (UniProt P35520) | 0.0287
22 | CAMK1D C182 (UniProt Q8IU85) | -0.389
23 | BORA C130 (UniProt Q6PGQ7) | 0.356
24 | C17orf75 C357 (UniProt Q9HAS0) | -0.0846
25 | BRME1 C79 | 0.272
26 | BRIX1 C52 (UniProt Q8TDN6) | -0.117
27 | CAPZB C147 (UniProt P47756) | -0.0685
28 | CAD C897 | -0.0425
29 | BRIP1 C42 (UniProt Q9BX63) | 0.33
30 | CAMKK2 C4 (UniProt Q96RR4) | 0.0904
31 | BRD1 C895 | -0.226
32 | CASC3 C36 (UniProt O15234) | 0.171
33 | CBR3 C150 (UniProt O75828) | -0.0374
34 | BOD1L1 C1170 (UniProt Q8NFC6) | 0.0942
35 | BPTF C20 | -0.0846
36 | CAMSAP1 C272 (UniProt Q5T5Y3) | 0.115
37 | C9orf78 C145 (UniProt Q9NZ63) | -0.0162
38 | BOLA1 C126 (UniProt Q9Y3E2) | 0.0407
39 | CASP2 C343 (UniProt P42575) | -0.185
40 | C1orf112 C559 (UniProt Q9NSG2) | -0.0272
